In PubChem BioAssay AID374 (University of Pittsburgh Molecular Library Screening Center, 2006):
The whole screen tested about 65,000 compounds, of which about 100 (0.15%) were called active. The shares of active, inactive and inconclusive entries below differ from those in the screen.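 How the source made its calls: active means inhibition above about 50% (limit read from the data); inconclusive means inhibition over screen mean plus 3 SD, below that limit; inactive means the rest.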

The chains behind the UniProt entries cited, without tags or fusion partners. Where a name states a change or a piece, a line headed by the entry shows the natural chain unless it says otherwise.
UniProt P28562: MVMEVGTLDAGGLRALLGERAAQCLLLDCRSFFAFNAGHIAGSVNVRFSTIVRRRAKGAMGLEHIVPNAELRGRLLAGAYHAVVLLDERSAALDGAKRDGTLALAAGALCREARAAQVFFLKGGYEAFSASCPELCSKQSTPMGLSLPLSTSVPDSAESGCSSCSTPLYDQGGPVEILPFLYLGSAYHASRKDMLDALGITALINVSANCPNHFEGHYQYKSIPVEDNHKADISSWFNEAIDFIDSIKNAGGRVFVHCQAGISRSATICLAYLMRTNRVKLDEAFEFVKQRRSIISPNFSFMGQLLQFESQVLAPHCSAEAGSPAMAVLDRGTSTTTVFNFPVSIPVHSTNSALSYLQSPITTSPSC

The molecules below were run against Dual specificity protein phosphatase 1 (Homo sapiens) (UniProt P28562) (assay: MKP-1 phosphatase inhibitors, primary screen, biochemical, in vitro (AID 374;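 further: 0% = DMSO max control wells and 100% = wells with enzyme stopped by NaOH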)). Conditions: recombinant MKP-1, OMFP hydrolysis fluorescence; hits give high values;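 compounds tested at a single concentration somewhere between 10 and 100 µM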.
In the case of CCN(c1ccccc1)S(=O)(=O)c1ccc(Oc2ccc(-n3ccnc3)cc2)nc1, the inhibition is reported as inactive: 24.3%.
With Cc1ccc(-c2nnc3c4ccccc4c(C)nn23)cc1S(=O)(=O)N1CCN(CCO)CC1 the inhibition was inconclusive: 45.5%.
With N#Cc1c(N)sc(=S)c2c1CCN(Cc1ccccc1)C2 the inhibition was active: 100%.
For O=C(Nc1ccc(Br)cc1F)c1ccc2c(c1)N(Cc1ccccc1)C(=O)CS2=O (stereo not drawn), the inhibition was inconclusive: 47%.
For COC(=O)c1c(NC(=O)CSc2nnc(Cn3nnc4ccccc43)n2C)sc(C)c1C, the inhibition was inactive: 29.5%.
Cn1c(C(C#N)C2=C(Cl)C(=O)N(c3ccccc3)C2=O)nc2ccccc21 (stereo not drawn) was tested, and the inhibition was inconclusive: 49%.
For Cc1nn(-c2ccccc2)c2c1P(=O)(O)/C(=C1\N(C)c3ccccc3C1(C)C)C=N2, the inhibition was inconclusive: 45%.
For O=c1[nH]c2cc3c(cc2cc1CN(Cc1ccccc1)Cc1nnnn1Cc1ccco1)OCCO3, the inhibition was inactive: 4.08%.
For CC(NC(=O)c1ccc2c(c1)OCO2)C1CCCO1 (stereo not drawn), the inhibition was active: 56%.
For Cc1ccc(/C=C/C2=Cc3c(sc(NC(=O)CSc4n[nH]c(N)n4)c3C#N)C(C)(C)C2)o1, the inhibition was active: 68.7%.
For CCOc1cc2[nH]c(=O)n(CC3CCC(C(=O)NCCC(C)C)CC3)c(=O)c2cc1OCC (stereo not drawn), the inhibition was inconclusive: 47.2%.
In the case of CN1CCN(c2ccc(Cl)cc2NC(=O)c2cccc(S(=O)(=O)N(C)C)c2)CC1, the inhibition is reported as inconclusive: 47.1%.
With Cc1noc(C)c1COc1ccc(C(=O)OC(C)C(=O)Nc2ccc(N3CCOCC3)cc2)cc1 (stereo not drawn) the inhibition was inconclusive: 47.7%.
With CS(=O)(=O)NCCC1=CCCCC1 the inhibition was inactive: 2.04%.
With CC(=O)N1CCN(c2ccc(NC(=O)c3ccc(C(C)(C)C)cc3)cc2)CC1 the inhibition was inactive: 7.95%.
Cc1noc(NS(=O)(=O)c2ccc(NC(=O)Nc3ccc(Cl)c(Cl)c3)cc2)c1C was tested, and the inhibition was inconclusive: 48.2%.
CCOC(=O)N1CCN(C(=O)c2ccc3c(=O)n(Cc4ccccc4)c(=S)[nH]c3c2)CC1 was tested, and the inhibition was inconclusive: 49.2%.
With Cc1ccc(-c2cnc(NC(=O)CCC(=O)N3CCCCC3)n2C)cc1 the inhibition was inactive: 23.8%.
In the case of COc1ccc(Br)cc1-c1nc(C)c(C(C)=O)n1O, the inhibition is reported as inconclusive: 49.1%.
COc1ccc(C(=O)c2no[n+]([O-])c2C(=O)c2ccc(OC)cc2)cc1 was tested, and the inhibition was inconclusive: 45.7%.
O=C(O)COc1ccc2c(c1)CCCC2 was tested, and the inhibition was inactive: 1.25%.
CCn1cc(C(=O)NCc2ccco2)c(=O)c2cc(S(=O)(=O)N3CCC(C)CC3)ccc21 was tested, and the inhibition was inconclusive: 47.3%.
Clc1ccc(C(c2nnnn2C2CCCCC2)N(Cc2cccnc2)Cc2ccco2)cc1 (stereo not drawn) was tested, and the inhibition was inactive: 12.5%.
For COc1cc(CNc2ccc3[nH]c(=O)[nH]c3c2)cc(Cl)c1OCC(=O)NC(C)(C)C, the inhibition was inconclusive: 45.6%.
For CC(=O)c1ccccc1OCC(O)CN1CCN(C(c2ccccc2)c2ccccc2)CC1 (stereo not drawn), the inhibition was inactive: -11.9%.
With COc1ccccc1N1CCN(C(c2cc3cc(C)ccc3[nH]c2=O)c2nnnn2C2CCCC2)CC1 (stereo not drawn) the inhibition was inconclusive: 47.7%.
For CCNC(=O)CSc1nc2cc(OC)c(OC)cc2c(=O)n1CCC1=CCCCC1, the inhibition was inconclusive: 45.4%.
In the case of CCOc1ccc2oc(-c3ccccc3)c(C(=O)N3CCN(CCO)CC3)c2c1, the inhibition is reported as inactive: 3.52%.
For N#Cc1nc(COc2ccccc2)oc1NCCCn1ccnc1, the inhibition was inactive: -11.6%.
For O=C(Nc1cc(C(F)(F)F)ccc1N1CCOCC1)C1Cc2ccccc2CN1C(=O)c1ccco1 (stereo not drawn), the inhibition was inconclusive: 45.8%.
With Clc1ccc(-c2ccc(-c3nn4c(-c5ccco5)nnc4s3)o2)cc1 the inhibition was inconclusive: 46.2%.
CCOCCCn1c(=N)c(C(=O)Nc2cc(C)on2)cc2c(=O)n3ccccc3nc21 was tested, and the inhibition was inactive: 5.63%.
Cc1ccc(C)c(NS(=O)(=O)c2cc(Br)cnc2N)c1 was tested, and the inhibition was inconclusive: 44.8%.
With Cc1oc(-c2ccc(Cl)cc2)cc1-c1nn2c(-c3ccoc3C)nnc2s1 the inhibition was inconclusive: 47.3%.
In the case of CCOc1cc2[nH]c(=O)n(CCC(=O)N3CCN(c4ccccc4OC)CC3)c(=O)c2cc1OCC, the inhibition is reported as inconclusive: 46.7%.
CCOC(=O)c1sc(NC(=O)CSc2nc(-c3ccco3)cc(C(F)(F)F)n2)c(C#N)c1C was tested, and the inhibition was inconclusive: 47.6%.
In the case of O=C(Nc1ccc(F)cc1)N1CCC(c2nc3c(nnn3Cc3cccc(Cl)c3)c(=O)[nH]2)CC1, the inhibition is reported as inconclusive: 48.9%.
With Cc1cccc(N2CCN(C(=O)Cc3c(C(=O)O)[nH]c4ccc(Cl)cc34)CC2)c1C the inhibition was active: 52.6%.
With CCn1c2ccccc2c2cc(NC(=O)Cc3ccc(S(=O)(=O)N4CCOCC4)s3)ccc21 the inhibition was inconclusive: 45.6%.
With Cc1ccc(CN2C(=O)CSc3ccc(C(=O)NCCN4CCOCC4)cc32)cc1 the inhibition was inactive: 9.42%.
For COc1ccc(C(C(O)C(=O)c2c[nH]c3ccccc23)N2CCN(c3ccccc3)CC2)cc1 (stereo not drawn), the inhibition was inconclusive: 45%.
With COc1cccc(NC(=O)c2cn(C)c(=O)c3cc(OC)c(OC)cc23)c1 the inhibition was inconclusive: 45.4%.
In the case of CCCSc1nnc(NC(=O)c2sc3nc(-c4cccs4)ccc3c2N)s1, the inhibition is reported as active: 52.7%.
COC(=O)c1ccc2c(=O)[nH]c(CN3c4ccccc4CC3C)nc2c1 (stereo not drawn) was tested, and the inhibition was inconclusive: 49.8%.
In the case of COc1cc(C(=O)Oc2ccccc2)ccc1OCc1c(C)noc1C, the inhibition is reported as inactive: 1.4%.
COc1cc2c(=O)n(CC3CCCO3)c(=O)n(CC(=O)Nc3cccc(Cl)c3)c2cc1OC (stereo not drawn) was tested, and the inhibition was inconclusive: 44.9%.
For Cc1nn2c(N3CCN(C(=O)c4ccco4)CC3)cc(C(C)(C)C)nc2c1-c1ccccc1, the inhibition was inconclusive: 45%.
With CCOC(=O)N1CCC(NC(=O)c2ccc3c(c2)sc2nc(-c4cccc(OC)c4)cn23)CC1 the inhibition was inconclusive: 49.4%.
For CCCCCNC(=O)c1ccc2c(=O)[nH]c3c(C(=O)NCC4CCCO4)sc(=S)n3c2c1 (stereo not drawn), the inhibition was active: 55.1%.
For CCc1ccc2[nH]c(=O)c(CN(Cc3ccccc3)Cc3nnnn3Cc3ccco3)cc2c1, the inhibition was inconclusive: 45%.
For COc1cc2c(C#N)c(N3CCc4ccccc4C3)nc(N)c2c(N)n1, the inhibition was inconclusive: 46.1%.
With CCCC(C(=O)NCC1CCCO1)N(Cc1ccco1)C(=O)CNS(=O)(=O)c1ccccc1 (stereo not drawn) the inhibition was inconclusive: 46.8%.
In the case of CCOC(=O)C1CCN(Cc2cn[nH]c2-c2ccc(C)cc2)CC1, the inhibition is reported as inconclusive: 45.3%.
For O=C(OC1CCCCC1)c1ccc2c(c1)C1C=CCC1C(C(=O)O)N2 (stereo not drawn), the inhibition was active: 52.1%.
In the case of CCc1ccc(NC(=O)CSc2nc3cc(C(=O)OC)ccc3c(=O)n2Cc2ccco2)cc1, the inhibition is reported as inconclusive: 44.6%.
In the case of O=C1CCC(C(=O)NC2(C(=O)NC3CCCCC3)CCCCC2)N1 (stereo not drawn), the inhibition is reported as inactive: 8.07%.
CCn1c(=NC(=O)c2ccc(N3C(=O)CCC3=O)cc2)sc2c(OC)ccc(OC)c21 was tested, and the inhibition was inconclusive: 48.8%.
For COC(=O)CSc1nc(-c2cccs2)ccc1C#N, the inhibition was inactive: -15.8%.
COC(=O)c1ccc2c(=O)n(Cc3ccco3)c(SCC(=O)Nc3ccccc3Cl)nc2c1 was tested, and the inhibition was inconclusive: 45.7%.
For C1CCC(c2nn3c(-c4n[nH]c5c4CCC5)nnc3s2)CC1, the inhibition was inactive: 0.16%.
With CC1(C)Cc2c(C#N)c(SCC(=O)c3ccccc3)nc(N3CCOCC3)c2CO1 the inhibition was inactive: 5.33%.
For COc1ccc2noc3c2c1C(=O)c1ccccc1-3, the inhibition was active: 79.2%.
With COc1cc(OC)cc(-c2cc3nc(C)c(CCC(=O)NC(C)CCc4ccco4)c(C)n3n2)c1 (stereo not drawn) the inhibition was inconclusive: 44.8%.
O=C(NCc1ccco1)c1c[nH]c2ccc(S(=O)(=O)N3CCOCC3)cc2c1=O was tested, and the inhibition was inactive: 11.7%.
With COCCNC(=O)CN(C(=O)CCC(=O)Nc1nccs1)c1ccccc1OC the inhibition was inactive: 17.9%.
For Cc1cccc(-c2nc(CN3CCCC(C(=O)NC4CCCCCC4)C3)c(C)o2)c1 (stereo not drawn), the inhibition was inconclusive: 49.1%.
In the case of COc1ccccc1-c1cc(C(=O)NC(C)c2ccccc2)no1 (stereo not drawn), the inhibition is reported as inactive: 6.32%.
In the case of CCOC(=O)Cc1nnc(NC(=O)C(CC)Sc2nnc3c4ccccc4n(C)c3n2)s1 (stereo not drawn), the inhibition is reported as inconclusive: 46%.
In the case of Nc1nc2c(s1)CCc1c-2cnn1-c1ccccc1, the inhibition is reported as active: 51.7%.
In the case of CCN(c1ccccc1)S(=O)(=O)c1ccc2[nH]cc(C(=O)NCCOC)c(=O)c2c1, the inhibition is reported as inconclusive: 45.1%.
With COc1cccc(NC(=O)N2CCC(N3CCCCC3)CC2)c1 the inhibition was inactive: 0.08%.
In the case of CSc1ncc(Cl)c(C(=O)C(C#N)c2nc3c(C)cc(C)cc3c(=O)[nH]2)n1 (stereo not drawn), the inhibition is reported as inconclusive: 46.8%.
With Cc1[nH]c2ccc(-c3nnc(SCC(=O)c4ccccc4F)o3)cc2c1C the inhibition was inconclusive: 47.5%.
For Cc1ccc(NC(=O)CSc2nnc(Cc3cccn3C)n2-c2ccc(F)cc2)cc1, the inhibition was inactive: 16.1%.
In the case of COc1ccc2c(c1OC)C(=O)N1c3ccccc3C(=O)N(c3ccc(F)cc3)C21 (stereo not drawn), the inhibition is reported as inactive: -18.7%.
Cc1cccc(-c2nc(CN3CCCC(C(=O)NC4CCC(C)CC4)C3)c(C)o2)c1 (stereo not drawn) was tested, and the inhibition was inconclusive: 48.1%.
Cc1nn(Cc2c(Cl)cccc2Cl)c(C)c1NC(=O)c1cc(C(C)C)on1 was tested, and the inhibition was inconclusive: 45%.
Cc1nc2c(C(=O)NCc3ccc(F)cc3)c[nH]n2c(=O)c1Cl was tested, and the inhibition was inconclusive: 45.2%.
With CCCC1=C(C(=O)OCC)C(c2ccc(F)cc2)n2ncnc2N1 (stereo not drawn) the inhibition was inactive: 12.2%.
For Cc1nc2c(C(=O)NCc3ccc4c(c3)OCO4)c[nH]n2c(=O)c1Cc1ccccc1F, the inhibition was inconclusive: 46%.
For CCCCCCC(=O)N1CCC(c2nc3c(nnn3Cc3ccccc3Cl)c(=O)[nH]2)CC1, the inhibition was inconclusive: 46%.
For COc1cccc2cc(-c3nnc(SCC(=O)Nc4cc(C(F)(F)F)ccc4Cl)n3N)oc12, the inhibition was inconclusive: 46.6%.
COc1ccc(OC)c2[nH]c(=O)c(CCNC(=O)c3ccc(S(=O)(=O)N4CCCCC4)cc3)cc12 was tested, and the inhibition was inconclusive: 48.6%.
